Source: patent US20210260009A1, “METHODS AND COMPOSITIONS FOR THE TREATMENT OF A RENAL DISEASE” (priority 2020, published 2021)

Tested on: E. coli K-12 proteome
Conditions: ΔdecR E. coli lysate
[1] = S-sulfhydrated protein pull-down, TMT LC-MS3

Molecule	ΔdecR [1]	ΔdecR (TMT LC-MS3 abundance in pull-down fraction)
sp|P00957|SYA_ECOLI (protein, UniProt P00957 2-876, looked up) Alanine--tRNA ligase: SKSTAEIRQAFLDFFHSKGHQVVASSSLVPHNDPTLLFTNAGMNQFKDVFLGLDKRNYSRATTSQRCVRAGGKHNDLENVGYTARHHTFFEMLGNFSFGDYFKHDAIQFAWELLTSEKWFALPKERLWVTVYESDDEAYEIWEKEVGIPRERIIRIGDNKGAPYASDNFWQMGDTGPCGPCTEIFYDHGDHIWGGPPGSPEEDGDRYIEIWNIVFMQFNRQADGTMEPLPKPSVDTGMGLERIAAVLQHVNSNYDIDLFRTLIQAVAKVTGATDLSNKSLRVIADHIRSCAFLIADGVMPSNENRGYVLRRIIRRAVRHGNMLGAKETFFYKLVGPLIDVMGSAGEDLKRQQAQVEQVLKTEEEQFARTLERGLALLDEELAKLSGDTLDGETAFRLYDTYGFPVDLTADVCRERNIKVDEAGFEAAMEEQRRRAREASGFGADYNAMIRVDSASEFKGYDHLELNGKVTALFVDGKAVDAINAGQEAVVVLDQTPFYAESGGQVGDKGELKGANFSFAVEDTQKYGQAIGHIGKLAAGSLKVGDAVQADVDEARRARIRLNHSATHLMHAALRQVLGTHVSQKGSLVNDKVLRFDFSHNEAMKPEEIRAVEDLVNTQIRRNLPIETNIMDLEAAKAKGAMALFGEKYDERVRVLSMGDFSTELCGGTHASRTGDIGLFRIISESGTAAGVRRIEAVTGEGAIATVHADSDRLSEVAHLLKGDSNNLADKVRSVLERTRQLEKELQQLKEQAAAQESANLSSKAIDVNGVKLLVSELSGVEPKMLRTMVDDLKNQLGSTIIVLATVVEGKVSLIAGVSKDVTDRVKAGELIGMVAQQVGGKGGGRPDMAQAGGTDAAALPAALASVKGWVSAKLQ	1.25	–
sp|P14407|FUMB_ECOLI;sp|P0AC33|FUMA_ECOLI (protein, UniProt P14407 1-548; P0AC33 2-548, looked up) Fumarate hydratase class I, … 1: MSNKPFIYQAPFPMGKDNTEYYLLTSDYVSVADFDGETILKVEPEALTLLAQQAFHDASFMLRPAHQKQVAAILHDPEASENDKYVALQFLRNSEIAAKGVLPTCQDTGTAIIVGKKGQRVWTGGGDEETLSKGVYNTYIEDNLRYSQNAALDMYKEVNTGTNLPAQIDLYAVDGDEYKFLCVAKGGGSANKTYLYQETKALLTPGKLKNFLVEKMRTLGTAACPPYHIAFVIGGTSAETNLKTVKLASAHYYDELPTEGNEHGQAFRDVQLEQELLEEAQKLGLGAQFGGKYFAHDIRVIRLPRHGASCPVGMGVSCSADRNIKAKINREGIWIEKLEHNPGQYIPQELRQAGEGEAVKVDLNRPMKEILAQLSQYPVSTRLSLTGTIIVGRDIAHAKLKELIDAGKELPQYIKDHPIYYAGPAKTPAGYPSGSLGPTTAGRMDSYVDLLQSHGGSMIMLAKGNRSQQVTDACHKHGGFYLGSIGGPAAVLAQQSIKHLECVAYPELGMEAIWKIEVEDFPAFILVDDKGNDFFQQIVNKQCANCTK Fumarate hydratase class I, … 2: SNKPFHYQAPFPLKKDDTEYYLLTSEHVSVSEFEGQEILKVAPEALTLLARQAFHDASFMLRPAHQQQVADILRDPEASENDKYVALQFLRNSDIAAKGVLPTCQDTGTAIIVGKKGQRVWTGGGDEAALARGVYNTYIEDNLRYSQNAPLDMYKEVNTGTNLPAQIDLYAVDGDEYKFLCIAKGGGSANKTYLYQETKALLTPGKLKNYLVEKMRTLGTAACPPYHIAFVIGGTSAETNLKTVKLASAKYYDELPTEGNEHGQAFRDVELEKELLIEAQNLGLGAQFGGKYFAHDIRVIRLPRHGASCPVGMGVSCSADRNIKAKINRQGIWIEKLEHNPGKYIPEELRKAGEGEAVRVDLNRPMKEILAQLSQYPVSTRLSLNGTIIVGRDIAHAKLKERMDNGEGLPQYIKDHPIYYAGPAKTPEGYASGSLGPTTAGRMDSYVDQLQAQGGSMIMLAKGNRSQQVTDACKKHGGFYLGSIGGPAAVLAQGSIKSLECVEYPELGMEAIWKIEVEDFPAFILVDDKGNDFFQQIQLTQCTRCVK	1.14	–
sp|P33602|NUOG_ECOLI (protein, UniProt P33602 2-908, looked up) NADH-quinone oxidoreductase …: ATIHVDGKEYEVNGADNLLEACLSLGLDIPYFCWHPALGSVGACRQCAVKQYQNAEDTRGRLVMSCMTPASDGTFISIDDEEAKQFRESVVEWLMTNHPHDCPVCEEGGNCHLQDMTVMTGHSFRRYRFTKRTHRNQDLGPFISHEMNRCIACYRCVRYYKDYADGTDLGVYGAHDNVYFGRPEDGTLESEFSGNLVEICPTGVFTDKTHSERYNRKWDMQFAPSICQQCSIGCNISPGERYGELRRIENRYNGTVNHYFLCDRGRFGYGYVNLKDRPRQPVQRRGDDFITLNAEQAMQGAADILRQSKKVIGIGSPRASVESNFALRELVGEENFYTGIAHGEQERLQLALKVLREGGIYTPALREIESYDAVLVLGEDVTQTGARVALAVRQAVKGKAREMAAAQKVADWQIAAILNIGQRAKHPLFVTNVDDTRLDDIAAWTYRAPVEDQARLGFAIAHALDNSAPAVDGIEPELQSKIDVIVQALAGAKKPLIISGTNAGSLEVIQAAANVAKALKGRGADVGITMIARSVNSMGLGIMGGGSLEEALTELETGRADAVVVLENDLHRHASAIRVNAALAKAPLVMVVDHQRTAIMENAHLVLSAASFAESDGTVINNEGRAQRFFQVYDPAYYDSKTVMLESWRWLHSLHSTLLSREVDWTQLDHVIDAVVAKIPELAGIKDAAPDATFRIRGQKLAREPHRYSGRTAMRANISVHEPRQPQDIDTMFTFSMEGNNQPTAHRSQVPFAWAPGWNSPQAWNKFQDEVGGKLRFGDPGVRLFETSENGLDYFTSVPARFQPQDGKWRIAPYYHLFGSDELSQRAPVFQSRMPQPYIKLNPADAAKLGVNAGTRVSFSYDGNTVTLPVEIAEGLTAGQVGLPMGMSGIAPVLAGAHLEDLKEAQQ	1.29	–
sp|P777187|THII_ECOLI (protein, UniProt P77718 1-482, looked up) tRNA sulfurtransferase: MKFIIKLFPEITIKSQSVRLRFIKILTGNIRNVLKHYDETLAVVRHWDNIEVRAKDENQRLAIRDALTRIPGIHHILEVEDVPFTDMHDIFEKALVQYRDQLEGKTFCVRVKRRGKHDFSSIDVERYVGGGLNQHIESARVKLTNPDVTVHLEVEDDRLLLIKGRYEGIGGFPIGTQEDVLSLISGGFDSGVSSYMLMRRGCRVHYCFFNLGGAAHEIGVRQVAHYLWNRFGSSHRVRFVAINFEPVVGEILEKIDDGQMGVILKRMMVRAASKVAERYGVQALVTGEALGQVSSQTLTNLRLIDNVSDTLILRPLISYDKEHIINLARQIGTEDFARTMPEYCGVISKSPTVKAVKSKIEAEEEKFDFSILDKVVEEANNVDIREIAQQTEQEVVEVETVNGFGPNDVILDIRSIDEQEDKPLKVEGIDVVSLPFYKLSTKFGDLDQNKTWLLWCERGVMSRLQALYLREQGFNNVKVYRP	–	0.96
sp|P0ADE8|YGFZ_ECOLI (protein, UniProt P0ADE8 2-326, looked up) tRNA-modifying protein YgfZ: AFTPFPPRQPTASARLPLTLMTLDDWALATITGADSEKYMQGQVTADVSQMAEDQHLLAAHCDAKGKMWSNLRLFRDGDGFAWIERRSVREPQLTELKKYAVFSKVTIAPDDERVLLGVAGFQARAALANLFSELPSKEKQVVKEGATTLLWFEHPAERFLIVTDEATANMLTDKLRGEAELNNSQQWLALNIEAGFPVIDAANSGQFIPQATNLQALGGISFKKGCYTGQEMVARAKFRGANKRALWLLAGSASRLPEAGEDLELKMGENWRRTGTVLAAVKLEDGQVVVQVVMNNDMEPDSIFRVRDDANTLHIEPLPYSLEE	1.43	–

Like-named read-outs stand apart in the source and are kept apart here.
